# Reference: the supplement of paper PMC6411743
# Sequences of proteins named here, by UniProt entry; tags and fusion partners are left off. A change or cut given only in a name is not applied to a line headed by its entry.
# UniProt P49069: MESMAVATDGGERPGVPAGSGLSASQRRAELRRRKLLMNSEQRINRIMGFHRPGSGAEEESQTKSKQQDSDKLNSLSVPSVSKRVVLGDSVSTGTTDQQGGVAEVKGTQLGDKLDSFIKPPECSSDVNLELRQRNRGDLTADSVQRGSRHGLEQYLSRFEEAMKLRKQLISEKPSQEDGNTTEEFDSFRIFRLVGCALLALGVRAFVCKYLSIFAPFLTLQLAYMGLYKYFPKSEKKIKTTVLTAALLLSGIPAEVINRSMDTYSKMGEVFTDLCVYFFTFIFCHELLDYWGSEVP
# UniProt P41223: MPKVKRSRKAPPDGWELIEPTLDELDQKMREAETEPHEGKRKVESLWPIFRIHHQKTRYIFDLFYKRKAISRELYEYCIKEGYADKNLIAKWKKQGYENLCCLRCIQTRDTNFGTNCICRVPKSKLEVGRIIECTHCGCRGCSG
# UniProt P52732: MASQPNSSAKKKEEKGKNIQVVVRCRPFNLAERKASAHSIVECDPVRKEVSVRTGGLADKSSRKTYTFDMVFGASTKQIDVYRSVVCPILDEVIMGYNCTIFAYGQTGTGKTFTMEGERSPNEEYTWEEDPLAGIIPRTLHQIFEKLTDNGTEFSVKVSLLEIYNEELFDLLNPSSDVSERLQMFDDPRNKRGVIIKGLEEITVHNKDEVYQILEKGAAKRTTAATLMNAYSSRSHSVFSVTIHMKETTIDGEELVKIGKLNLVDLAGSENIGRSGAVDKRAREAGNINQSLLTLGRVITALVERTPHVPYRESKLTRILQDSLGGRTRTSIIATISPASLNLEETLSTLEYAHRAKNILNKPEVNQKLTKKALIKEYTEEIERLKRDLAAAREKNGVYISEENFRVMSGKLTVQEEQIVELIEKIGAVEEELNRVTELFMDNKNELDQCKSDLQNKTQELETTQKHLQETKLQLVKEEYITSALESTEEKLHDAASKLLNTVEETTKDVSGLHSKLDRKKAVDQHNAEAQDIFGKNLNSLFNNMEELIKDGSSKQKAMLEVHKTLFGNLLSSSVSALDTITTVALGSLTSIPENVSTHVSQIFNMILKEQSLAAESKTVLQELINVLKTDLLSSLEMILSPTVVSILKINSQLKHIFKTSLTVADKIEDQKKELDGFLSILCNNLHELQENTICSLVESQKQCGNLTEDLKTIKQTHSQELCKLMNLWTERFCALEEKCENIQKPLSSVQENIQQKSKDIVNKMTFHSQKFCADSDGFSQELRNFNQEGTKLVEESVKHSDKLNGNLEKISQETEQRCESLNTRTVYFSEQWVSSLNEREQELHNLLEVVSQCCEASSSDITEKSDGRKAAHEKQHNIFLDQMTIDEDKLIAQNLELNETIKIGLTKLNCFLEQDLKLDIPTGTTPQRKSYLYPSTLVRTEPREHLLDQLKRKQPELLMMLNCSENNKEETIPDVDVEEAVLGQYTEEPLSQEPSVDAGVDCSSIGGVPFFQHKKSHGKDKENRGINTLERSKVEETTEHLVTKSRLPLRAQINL
# UniProt P35754: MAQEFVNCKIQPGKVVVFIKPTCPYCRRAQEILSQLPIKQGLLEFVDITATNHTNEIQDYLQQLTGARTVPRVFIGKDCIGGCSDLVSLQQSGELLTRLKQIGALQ
# UniProt P36542: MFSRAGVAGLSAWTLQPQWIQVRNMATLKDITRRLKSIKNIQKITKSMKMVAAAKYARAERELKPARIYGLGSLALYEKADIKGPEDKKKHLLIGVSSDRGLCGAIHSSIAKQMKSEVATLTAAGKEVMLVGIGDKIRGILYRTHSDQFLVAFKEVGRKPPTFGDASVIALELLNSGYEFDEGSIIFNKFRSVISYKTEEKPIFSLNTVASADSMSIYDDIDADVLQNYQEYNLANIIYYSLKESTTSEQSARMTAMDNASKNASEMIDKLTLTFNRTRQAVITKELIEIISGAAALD
# UniProt P42773: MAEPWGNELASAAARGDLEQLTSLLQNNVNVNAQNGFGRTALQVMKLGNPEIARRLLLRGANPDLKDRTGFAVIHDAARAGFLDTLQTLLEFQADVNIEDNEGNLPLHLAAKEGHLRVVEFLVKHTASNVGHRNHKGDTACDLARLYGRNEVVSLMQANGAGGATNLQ
# UniProt P49792, whole entry: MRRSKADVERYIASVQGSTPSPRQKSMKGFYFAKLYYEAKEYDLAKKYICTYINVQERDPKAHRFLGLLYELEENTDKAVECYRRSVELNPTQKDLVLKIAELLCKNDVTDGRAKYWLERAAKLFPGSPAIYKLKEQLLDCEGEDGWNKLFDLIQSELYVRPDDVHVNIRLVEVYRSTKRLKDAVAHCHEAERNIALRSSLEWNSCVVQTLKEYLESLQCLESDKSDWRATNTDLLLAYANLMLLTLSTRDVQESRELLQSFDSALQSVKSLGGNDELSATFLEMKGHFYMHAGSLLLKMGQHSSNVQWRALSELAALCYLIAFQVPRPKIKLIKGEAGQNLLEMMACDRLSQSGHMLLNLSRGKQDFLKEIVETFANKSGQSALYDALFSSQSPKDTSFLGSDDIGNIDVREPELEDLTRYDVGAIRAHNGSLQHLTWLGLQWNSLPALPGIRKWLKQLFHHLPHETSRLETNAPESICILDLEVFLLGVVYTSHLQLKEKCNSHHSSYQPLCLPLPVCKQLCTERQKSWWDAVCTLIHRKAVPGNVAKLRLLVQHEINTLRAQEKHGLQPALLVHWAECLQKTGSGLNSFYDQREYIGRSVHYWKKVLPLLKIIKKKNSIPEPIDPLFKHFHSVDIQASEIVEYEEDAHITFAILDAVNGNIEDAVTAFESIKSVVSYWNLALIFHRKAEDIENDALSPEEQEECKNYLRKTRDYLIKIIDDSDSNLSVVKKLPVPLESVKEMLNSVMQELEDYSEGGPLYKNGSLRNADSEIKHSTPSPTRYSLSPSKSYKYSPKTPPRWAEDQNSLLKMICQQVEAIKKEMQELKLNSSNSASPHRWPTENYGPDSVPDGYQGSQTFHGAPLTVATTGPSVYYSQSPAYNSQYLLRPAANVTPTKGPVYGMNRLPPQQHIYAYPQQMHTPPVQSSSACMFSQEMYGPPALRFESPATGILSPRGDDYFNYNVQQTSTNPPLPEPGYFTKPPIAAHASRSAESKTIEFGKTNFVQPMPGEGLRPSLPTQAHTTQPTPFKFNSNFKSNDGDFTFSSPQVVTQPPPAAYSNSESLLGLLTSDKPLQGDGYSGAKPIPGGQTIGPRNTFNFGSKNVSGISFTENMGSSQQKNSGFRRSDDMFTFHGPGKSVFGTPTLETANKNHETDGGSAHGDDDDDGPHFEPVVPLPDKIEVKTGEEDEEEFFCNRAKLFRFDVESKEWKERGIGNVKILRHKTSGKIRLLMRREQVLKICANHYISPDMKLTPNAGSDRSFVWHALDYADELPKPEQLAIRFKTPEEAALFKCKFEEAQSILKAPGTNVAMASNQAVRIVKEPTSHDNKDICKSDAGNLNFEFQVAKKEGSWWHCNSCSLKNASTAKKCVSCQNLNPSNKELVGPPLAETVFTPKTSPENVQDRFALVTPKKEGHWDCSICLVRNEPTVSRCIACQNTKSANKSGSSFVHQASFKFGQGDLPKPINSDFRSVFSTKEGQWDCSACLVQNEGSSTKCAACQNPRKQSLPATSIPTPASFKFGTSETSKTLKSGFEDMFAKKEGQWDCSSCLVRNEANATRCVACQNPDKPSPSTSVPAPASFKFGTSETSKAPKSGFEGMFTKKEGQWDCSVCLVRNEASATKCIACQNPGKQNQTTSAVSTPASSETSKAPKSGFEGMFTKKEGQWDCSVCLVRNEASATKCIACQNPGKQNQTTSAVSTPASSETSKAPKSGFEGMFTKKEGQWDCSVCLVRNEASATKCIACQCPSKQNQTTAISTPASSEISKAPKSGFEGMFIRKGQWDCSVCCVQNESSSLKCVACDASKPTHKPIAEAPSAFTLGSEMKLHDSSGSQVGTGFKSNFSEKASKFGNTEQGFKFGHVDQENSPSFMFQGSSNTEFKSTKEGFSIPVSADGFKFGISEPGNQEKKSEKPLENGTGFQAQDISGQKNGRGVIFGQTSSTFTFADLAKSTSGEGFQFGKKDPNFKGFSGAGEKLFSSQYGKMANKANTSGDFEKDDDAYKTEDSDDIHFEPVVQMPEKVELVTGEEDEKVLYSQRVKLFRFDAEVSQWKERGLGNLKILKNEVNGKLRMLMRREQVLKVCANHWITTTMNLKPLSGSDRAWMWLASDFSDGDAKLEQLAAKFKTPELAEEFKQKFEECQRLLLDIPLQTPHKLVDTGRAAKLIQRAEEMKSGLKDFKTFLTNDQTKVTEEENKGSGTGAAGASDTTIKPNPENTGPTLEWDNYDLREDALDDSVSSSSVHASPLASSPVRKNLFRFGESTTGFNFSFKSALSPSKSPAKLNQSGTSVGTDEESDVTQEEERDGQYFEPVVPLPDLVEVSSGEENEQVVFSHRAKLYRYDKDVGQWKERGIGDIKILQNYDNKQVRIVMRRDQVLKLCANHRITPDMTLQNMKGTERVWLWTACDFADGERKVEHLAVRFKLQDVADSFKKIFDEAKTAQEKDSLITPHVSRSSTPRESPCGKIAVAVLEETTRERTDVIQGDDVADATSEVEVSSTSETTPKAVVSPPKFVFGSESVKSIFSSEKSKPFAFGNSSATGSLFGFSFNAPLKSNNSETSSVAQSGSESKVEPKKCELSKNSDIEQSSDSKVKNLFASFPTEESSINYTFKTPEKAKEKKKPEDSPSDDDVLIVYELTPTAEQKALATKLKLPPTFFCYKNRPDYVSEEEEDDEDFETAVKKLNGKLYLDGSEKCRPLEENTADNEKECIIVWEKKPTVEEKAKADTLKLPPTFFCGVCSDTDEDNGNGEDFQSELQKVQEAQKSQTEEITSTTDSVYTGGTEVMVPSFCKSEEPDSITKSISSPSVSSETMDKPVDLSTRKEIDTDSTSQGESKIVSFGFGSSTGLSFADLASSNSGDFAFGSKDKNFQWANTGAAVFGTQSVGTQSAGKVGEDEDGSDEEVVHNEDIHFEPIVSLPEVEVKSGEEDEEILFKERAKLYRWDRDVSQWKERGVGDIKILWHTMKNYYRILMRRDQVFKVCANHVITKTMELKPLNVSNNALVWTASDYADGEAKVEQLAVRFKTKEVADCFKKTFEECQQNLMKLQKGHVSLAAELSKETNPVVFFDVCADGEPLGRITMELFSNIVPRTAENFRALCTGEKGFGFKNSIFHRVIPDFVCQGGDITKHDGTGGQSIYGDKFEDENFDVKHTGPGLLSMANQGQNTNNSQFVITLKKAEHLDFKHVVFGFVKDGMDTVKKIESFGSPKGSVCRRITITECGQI
# UniProt P50416: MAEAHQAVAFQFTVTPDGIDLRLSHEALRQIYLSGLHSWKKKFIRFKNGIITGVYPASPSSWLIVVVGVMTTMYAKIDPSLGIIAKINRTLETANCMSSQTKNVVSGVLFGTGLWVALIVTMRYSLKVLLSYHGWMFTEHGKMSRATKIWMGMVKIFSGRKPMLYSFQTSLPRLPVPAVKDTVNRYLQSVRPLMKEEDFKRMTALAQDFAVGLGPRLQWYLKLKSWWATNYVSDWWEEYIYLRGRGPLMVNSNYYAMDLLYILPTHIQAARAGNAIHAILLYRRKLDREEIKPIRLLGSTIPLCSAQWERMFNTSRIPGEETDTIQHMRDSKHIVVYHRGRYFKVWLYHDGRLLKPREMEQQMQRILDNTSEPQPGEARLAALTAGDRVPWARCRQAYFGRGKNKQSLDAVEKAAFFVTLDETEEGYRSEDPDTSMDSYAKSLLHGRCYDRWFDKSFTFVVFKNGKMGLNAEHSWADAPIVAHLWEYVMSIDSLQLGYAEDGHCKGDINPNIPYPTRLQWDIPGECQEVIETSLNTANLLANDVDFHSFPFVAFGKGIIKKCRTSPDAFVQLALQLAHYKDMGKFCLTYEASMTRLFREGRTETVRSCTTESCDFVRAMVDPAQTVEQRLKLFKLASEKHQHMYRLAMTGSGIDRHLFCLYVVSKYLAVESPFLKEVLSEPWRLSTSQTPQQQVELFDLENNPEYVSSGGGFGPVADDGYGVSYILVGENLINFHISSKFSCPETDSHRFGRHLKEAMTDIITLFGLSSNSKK
# UniProt P49257: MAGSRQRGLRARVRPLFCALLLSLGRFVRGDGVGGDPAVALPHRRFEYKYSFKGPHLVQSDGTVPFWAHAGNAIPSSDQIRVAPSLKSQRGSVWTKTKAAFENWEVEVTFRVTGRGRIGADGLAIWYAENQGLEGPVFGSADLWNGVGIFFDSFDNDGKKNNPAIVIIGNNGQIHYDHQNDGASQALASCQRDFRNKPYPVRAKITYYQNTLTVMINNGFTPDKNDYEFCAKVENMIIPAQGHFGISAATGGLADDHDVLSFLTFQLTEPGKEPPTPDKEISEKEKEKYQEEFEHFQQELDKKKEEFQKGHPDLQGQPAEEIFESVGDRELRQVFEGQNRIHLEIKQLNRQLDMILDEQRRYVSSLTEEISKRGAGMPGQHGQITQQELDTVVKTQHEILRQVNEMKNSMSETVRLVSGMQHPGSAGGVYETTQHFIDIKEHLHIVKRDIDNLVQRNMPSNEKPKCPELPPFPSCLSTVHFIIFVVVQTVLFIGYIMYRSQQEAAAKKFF
# ± gives the standard deviation of the averaged measurements. The list shows a part of the results, in another mix than the full data. Most values lie at the level of the controls, where differences are scatter.
# Compound: Nc1ncnc2c1ncn2[C@@H]1O[C@H](COP(=O)(O)OP(=O)(O)OP(=O)(O)O)[C@@H](O)[C@H]1O [adenosine triphosphate]
# Experiment: NP40-soluble protein abundance relative to vehicle (solubility fold change) (ratio); higher = more soluble protein in presence of ATP
# Summary of the method: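 Jurkat crude lysate prepared with a Dounce homogeniser was treated at eight concentrations spanning 0.1 to 10 mM, 10 min at room temperature then 3 min at 37 °C. Solubilisation with 0.8% NP40 and benzonase and ultracentrifugation preceded TMT labelling of the supernatant for LC-MS/MS. Fold change against the detergent-processed vehicle was determined per replicate from vsn-normalised intensities, across three independent experiments.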
Target,NP40-soluble protein abundance (concentration: 0.1mM),NP40-soluble protein abundance (concentration: 0.5mM)
UniProt P49796 and related entries,0.978 ± 0.035,0.931 ± 0.054
ATP6V1E1 (UniProt P36543),0.946 ± 0.026,0.935 ± 0.02
RPL29 (UniProt P47914),0.898 ± 0.15,0.911 ± 0.16
RPIA (UniProt P49247),1.01 ± 0.043,1.01 ± 0.022
UniProt P45984 and related entries,1.05 ± 0.11,1.03 ± 0.037
UniProt P52564,1.05 ± 0.056,1.04 ± 0.042
UniProt P36402-5,0.874 ± 0.15,0.872 ± 0.14
CAPZA2 (UniProt P47755),1.02 ± 0.047,1.06 ± 0.056
UniProt P49023-2,1.01 ± 0.014,1.01 ± 0.027
KPNA2 (UniProt P52292),1.03 ± 0.05,1.06 ± 0.045
ST13 (UniProt P50502),0.931 ± 0.051,0.876 ± 0.067
NAMPT (UniProt P43490),1.05 ± 0.087,1.06 ± 0.1
ETV3 (UniProt P41162),0.896 ± 0.045,1.06 ± 0.039
UniProt P49916 and related entries,1.07 ± 0.047,1.1 ± 0.06
UniProt P48059 and related entries,1.04 ± 0.052,1.03 ± 0.043
WAS (UniProt P42768),0.917 ± 0.096,0.875 ± 0.081
UniProt P51798 and related entries,1.05 ± 0.065,1.05 ± 0.039
UniProt P49750-3|P49750-4,1.01 ± 0.022,1.08 ± 0.031
SERPINB8 (UniProt P50452),1.04 ± 0.092,1.05 ± 0.07
CAMLG (UniProt P49069),0.967 ± 0.064,0.929 ± 0.016

Target,NP40-soluble protein abundance (concentration: 0.1mM),NP40-soluble protein abundance (concentration: 0.5mM)
CSK (UniProt P41240),1.06 ± 0.064,1.05 ± 0.068
UniProt P52758,0.939 ± 0.044,0.889 ± 0.087
LRPPRC (UniProt P42704),0.97 ± 0.063,1.02 ± 0.045
UniProt P38117 and related entries,0.987 ± 0.014,0.9725 ± 0.0096
CPOX (UniProt P36551),1.04 ± 0.022,1.04 ± 0.06
HPCAL1 (UniProt P37235),0.954 ± 0.021,0.896 ± 0.089
RPL14 (UniProt P50914),0.917 ± 0.04,0.92 ± 0.084
UniProt P52888 and related entries,1.04 ± 0.048,1.02 ± 0.063
RGS19 (UniProt P49795),0.972 ± 0.036,0.984 ± 0.083
MTHFS (UniProt P49914),1.04 ± 0.046,1.04 ± 0.074
UniProt P41223,1 ± 0.012,1.03 ± 0.055
TSFM (UniProt P43897),0.992 ± 0.031,0.974 ± 0.032
MRPL19 (UniProt P49406),0.974 ± 0.065,0.999 ± 0.059
DHPS (UniProt P49366),1.03 ± 0.03,1.03 ± 0.03
KIF11 (UniProt P52732),1.03 ± 0.022,1.03 ± 0.061
GLRX (UniProt P35754),0.897 ± 0.11,0.878 ± 0.15
HDGF (UniProt P51858),0.952 ± 0.013,0.979 ± 0.024
UniProt P36542 and related entries,0.995 ± 0.039,0.985 ± 0.019
DAP (UniProt P51397),0.92 ± 0.024,0.938 ± 0.13
PRCP (UniProt P42785),0.928 ± 0.013,0.917 ± 0.068

Target,NP40-soluble protein abundance (concentration: 0.1mM),NP40-soluble protein abundance (concentration: 0.5mM)
CDKN2C (UniProt P42773),0.849 ± 0.14,0.807 ± 0.21
HADHA (UniProt P40939),0.998 ± 0.043,1.01 ± 0.026
GNPDA1 (UniProt P46926),0.997 ± 0.12,0.9947 ± 0.0089
NCBP2 (UniProt P52298),0.984 ± 0.037,1 ± 0.017
RANBP2 (UniProt P49792),0.9868 ± 0.0095,1.02 ± 0.038
CPT1A (UniProt P50416),0.979 ± 0.041,0.969 ± 0.0099
UniProt P49588 and related entries,1.04 ± 0.048,1.04 ± 0.065
GTF2A2 (UniProt P52657),0.819 ± 0.14,0.822 ± 0.21
MNAT1 (UniProt P51948),0.985 ± 0.055,1 ± 0.046
UniProt P49720,0.894 ± 0.071,0.876 ± 0.12
LMAN1 (UniProt P49257),1.05 ± 0.061,1.06 ± 0.072
UniProt P50851 and related entries,1.02 ± 0.049,1 ± 0.024
UniProt P42898 and related entries,1.05 ± 0.13,1.09 ± 0.1
TUFM (UniProt P49411),1.07 ± 0.085,1.1 ± 0.071
HLCS (UniProt P50747),1.05 ± 0.096,0.995 ± 0.07
NUDT2 (UniProt P50583),0.997 ± 0.012,0.984 ± 0.075
CCT4 (UniProt P50991),0.891 ± 0.087,0.92 ± 0.1
PPM1F (UniProt P49593),1.03 ± 0.026,1 ± 0.054
RAB27A (UniProt P51159),1.02 ± 0.077,1.03 ± 0.077

# Another view of part of the listing above:
Target	NP40-soluble protein abundance (concentration: 0.1mM)	NP40-soluble protein abundance (concentration: 0.5mM)
MNAT1 (UniProt P51948)	0.985 ± 0.055	1 ± 0.046
UniProt P49720	0.894 ± 0.071	0.876 ± 0.12
LMAN1 (UniProt P49257)	1.05 ± 0.061	1.06 ± 0.072
UniProt P50851 and related entries	1.02 ± 0.049	1 ± 0.024
